Source: PubChem BioAssay AID504467 (National Center for Advancing Translational Sciences (NCATS), 2011)
About 7,700 (2.3%) of roughly 330,000 compounds were called active. Inconclusive results, whose numbers are uncertain, are shown with a selection of clear calls. The call rests on the fitted dose curve; in most records, active means well fitted inhibition curve with a large enough effect; inconclusive means small, poorly fitted or top-dose-only effect, or effect the other way; inactive means flat fitted curve, though single readings scatter. A potency beside an inconclusive call is a rough fit, not a confirmed value.

test: qHTS screen for small molecules that inhibit ELG1-dependent DNA repair in human embryonic kidney (HEK293T) cells expressing luciferase-tagged ELG1; conditions: HEK293T ELG1-luciferase reporter, luminescence, 16 h, DNA damage induced by 5-fluorouridine; activity change, negative = inhibition: at 46.1 µM (top of the series); further: nearly all actives have a fitted effect of over 55% in size
In short: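 Overnight (16 hr) co-exposure of 2,000 cells/well to 5-fluorouridine and compound at 37 °C preceded detection. Luciferase was quantified via ONE-Glo luminescence; loss of signal denotes inhibition.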
On the % scale 0 is the no-effect control and ±100 the full control effect; potency means the concentration at half of the fitted maximal effect.

SMILES | activity change, negative = inhibition | Potency
O=C(O)CCCC(=O)NNc1ncnc2ccccc12 | inactive: 2.11% | –
COc1ccc(N(CC(=O)NCCOc2ccccc2)S(=O)(=O)c2ccc(C)cc2)cc1 | inactive: -15.1% | –
C=CCNC(=S)/N=c1/ccccn1CC | – | inconclusive: 23.1 µM [activator, partial curve, poor fit]
CCc1nnc(NC(=O)C2Cc3ccccc3CN2S(=O)(=O)c2ccc(C)cc2)s1 (stereo not drawn) | – | inconclusive: 35.5 µM [activator, single point]
Cc1ccc(CCNC(=O)Cn2ncc3c([nH]c4ccccc43)c2=O)cc1 | inactive: 7.06% | –
CCN(CC)S(=O)(=O)c1cccc(C(=O)N[C@H](C(=O)NNC(=O)c2ccccc2)C(C)C)c1 | – | inconclusive: 10.3 µM [inhibitor, partial curve, poor fit]
O=C(c1ccc(Cn2ccc([N+](=O)[O-])n2)cc1)N1CCN(Cc2ccccc2)CC1 | – | inconclusive: 23.1 µM [inhibitor, partial curve]
Cc1ccc(C2CC(c3cccs3)=NN2C(=O)CSc2nc(=O)n3cc(C)ccc3n2)cc1 (stereo not drawn) | inactive: -25.2% | –
O=C(Nc1ccc(N2CCOCC2)cc1N1CCOCC1)c1ccc([N+](=O)[O-])cc1 | inactive: 1.14% | –
O=C(O)c1nccnc1C(=O)Nc1ccccc1-c1ccccc1 | – | inconclusive: 0.092 µM [inhibitor, full curve, poor fit]
Cc1ccc(CCNC(=O)c2sc3nc4n(c(=O)c3c2C)CCC4)cc1 | inactive: -7.6% | –
CCOC(=O)Cc1csc(NC(=O)c2ccc(N3CCOCC3)cc2[N+](=O)[O-])n1 | – | inconclusive: 29.1 µM [inhibitor, single point]
CC(C)CNC(=O)c1noc2c1CCCC2 | – | inconclusive: 10.3 µM [activator, partial curve]
COc1ccc(/C=C/c2c([N+](=O)[O-])c(=O)n(C)c(=O)n2C)c(OC)c1OC | inactive: -11% | –
O=C(OCC(=O)N1CCc2ccccc21)c1nc(Cl)ccc1Cl | inactive: 10.1% | –
COc1ccc(Cl)cc1C(=O)OCC(=O)Nc1cccnc1Cl | – | inconclusive: 23.1 µM [inhibitor, single point]
CC(=O)c1cc(C#N)c(SCc2ccc(F)cc2)nc1C | – | inconclusive: 20.6 µM [activator, single point]
Cc1cc(C(=O)NCc2ccco2)on1 | inactive: -2.89% | –
COc1cccc(OC)c1OCCCOc1cccc2cccnc12 | – | inconclusive: 6.51 µM [activator, partial curve]
O=C(NCc1ccccn1)C1CCN(C(=O)c2cc3sccc3n2Cc2ccc(F)cc2)CC1 | – | active: 20.6 µM
Nc1cccc(CCc2ccncc2)c1 | inactive: 8.79% | –
COCCn1c(=S)[nH]c2cc(C(=O)N3CC(C)CC(C)C3)ccc2c1=O (stereo not drawn) | inactive: -14% | –
CN(C(=O)CSc1nnc(C2CC2)n1-c1ccccc1)C1CCS(=O)(=O)C1 (stereo not drawn) | inactive: 11.2% | –
CCOc1ccc(NC(=O)[C@@H](NC(=O)c2ccccc2)[C@@H](C)CC)cc1 | – | inconclusive: 23.1 µM [activator, single point]
Cc1ccc(OCCNC(=O)CNC(=O)c2ccc(Cl)c([N+](=O)[O-])c2)cc1 | – | inconclusive: 29.1 µM [inhibitor, single point]

SMILES | activity change, negative = inhibition | Potency
CC(C)Cn1c(N)c(C(=O)COC(=O)c2cccc(F)c2)c(=O)n(C)c1=O | – | inconclusive: 14.6 µM [inhibitor, partial curve]
CCCCN(C)C(=O)C1CCN(c2ccc(S(=O)(=O)N3CCOCC3)cc2[N+](=O)[O-])CC1 | inactive: -10.7% | –
O=C(CSc1ccc2nnc(-c3ccc(F)cc3)n2n1)N1CCCc2ccccc21 | – | active: 18.4 µM
Cc1cccc(NCc2n[nH]c(=S)n2-c2ccccc2)c1 | inactive: -0.819% | –
CCNC(=O)c1cccc(NC(=O)c2cc(C3CC3)nc3c2cnn3C(C)C)c1 | – | inconclusive: 18.3 µM [inhibitor, partial curve, poor fit]
CCOC(=O)c1c(C)nc2sc3c(c2c1-c1ccc(OC)cc1)NC(c1ccc(OC)cc1)NC3=O (stereo not drawn) | – | inconclusive: 22.4 µM [inhibitor, single point]
COc1ccc(S(=O)(=O)N2CCCCCC2)cc1C(=O)OCC(=O)Nc1cc(C)on1 | – | inconclusive: 29.1 µM [activator, single point]
CC(C)Cc1ccc(/C=C/C(=O)NC2CC2)cc1 | – | inconclusive: 10.3 µM [activator, partial curve]
O=C(Nc1nc(-c2ccc([N+](=O)[O-])cc2)cs1)c1c(F)cccc1F | inactive: -1.4% | –
N#Cc1ccc(C(=O)OCC(=O)N2CCCCCC2)cc1 | inactive: 7.5% | –
COc1ccc(OCCNC(=O)c2ccccc2OCC(=O)N2CCCCC2)cc1 | – | active: 23.1 µM
Cc1ccc(CNc2nc(Cl)c(C#N)s2)cc1 | – | inconclusive: 20.6 µM [activator, partial curve]
COC(=O)C1CSC(C(=O)OC)N1C(=O)CN1CCN(c2ccc(OC)cc2)CC1 (stereo not drawn) | inactive: -3.67% | –
CC1CC1C(=O)OCC(=O)NCc1ccccc1Cl (stereo not drawn) | inactive: 22.3% | –
O=C(NCc1cccnc1)C(C(=O)c1ccc(F)cc1)n1ccccc1=O (stereo not drawn) | inactive: 0% | –
O=C1c2ccccc2C(=O)N1c1nc(-c2cccs2)cs1 | – | inconclusive: 8.2 µM [activator, partial curve]
C(=N\Nc1nc(-c2cccnc2)nc2ccccc12)/c1ccccc1 | – | inconclusive: 0.206 µM [activator, partial curve]
C/C(=N\NC(=O)OC(C)(C)C)c1cccc([N+](=O)[O-])c1 | – | inconclusive: 20.6 µM [activator, partial curve]
Clc1ccccc1-c1nc(-c2ccncc2)no1 | – | inconclusive: 9.2 µM [activator, partial curve]
COC(=O)C1=C(C)NC(C)=C(C(=O)OCC2CCCO2)C1c1cccc(Br)c1 (stereo not drawn) | – | inconclusive: 29.1 µM [inhibitor, single point]
CCC(=O)Nc1ccc(C2C(=O)c3ccccc3C2=O)cc1 | – | inconclusive: 2.59 µM [activator, partial curve]
C/C(=C\C(=O)OCC(=O)NCc1ccccc1)C(=O)OCC(=O)NCc1ccccc1 | – | inconclusive: 4.61 µM [activator, full curve, poor fit]
CCN(CC)c1ccc(NC(=O)Cn2cc3c(n2)CCC(C)C3)c(C)c1 (stereo not drawn) | – | inconclusive: 29.1 µM [inhibitor, single point]
COc1ccc(/C=C2\C(=O)ON=C2c2ccccc2)cc1OC | inactive: 25.8% | –
Cc1ccc(N2CS(=O)(=O)/C(=C/N(C)C)C2=O)cc1 | – | inconclusive: 7.31 µM [activator, partial curve]

SMILES | activity change, negative = inhibition | Potency
COc1cc(OC)cc(C(=O)NCCn2ccc3ccccc32)c1 | – | inconclusive: 20.6 µM [inhibitor, partial curve, poor fit]
O=[N+]([O-])c1cc(/C=N/N2CCN(c3ccccc3)CC2)ccc1Cl | inactive: 19% | –
O=C(O)c1ccc(-n2nnc3ccccc32)c([N+](=O)[O-])c1 | – | inconclusive: 8.2 µM [activator, partial curve]
CSc1ccccc1NC(=O)CN(C)C(=O)C1CCN(C(=O)Nc2ccccc2)CC1 | inactive: 13% | –
O=C(C[C@@H]1C/C=C\CCCC(=O)OC[C@@H]2CCCN2C1=O)NCCO | inactive: 22.1% | –
Cc1ccccc1-c1ncc(CN2CCN(C3CCCCC3)C(CCO)C2)cn1 (stereo not drawn) | – | inconclusive: 18.3 µM [activator, partial curve, poor fit]
C/C(CC(=O)Nc1ccc(C)c(Cl)c1)=N\NC(=O)c1ccccn1 | – | inconclusive: 20.6 µM [activator, single point]
Cc1ccccc1OCC(=O)Nc1cccc(NC(=O)c2ccco2)c1 | inactive: -24.1% | –
COc1ccc(/C=C/c2noc(-c3ccccc3OC(C)=O)n2)cc1 | – | inconclusive: 18.3 µM [activator, partial curve]
COc1cccc(Nc2nc(-c3cccs3)nc3ccccc23)c1 | – | active: 23.1 µM
CC(=O)c1cc(-c2ccc(F)cc2)n(CCC(=O)Nc2cccc(C)n2)c1C | – | inconclusive: 25.9 µM [inhibitor, single point]
Cc1cccc(COCC(Cc2ccccc2)N2CCN(C(=O)c3cccc(C)c3)CCC2=O)c1 (stereo not drawn) | – | inconclusive: 18.4 µM [inhibitor, partial curve, poor fit]
COc1ccccc1NC(=O)Cn1c2ccccc2c2nc3n(c(=O)c21)CCS3 | – | inconclusive: 18.3 µM [inhibitor, single point]
COc1cccc(/C=N/NC(=O)N/N=C/c2cccc(OC)c2O)c1O | – | inconclusive: 2.82 µM [inhibitor, full curve]
CCOC(=O)N1CCC(N2Cc3cccc(C(=O)Nc4ccc(OCC)cc4)c3C2=O)CC1 | – | inconclusive: 29.1 µM [inhibitor, single point]
CCOC(=O)NCc1cc(-c2nn(C)c(=O)c3ccccc23)ccc1C | – | inconclusive: 18.4 µM [inhibitor, single point]
COc1ccc(C(=O)NN(C)c2nc(-c3ccccc3)cc(C)c2S(C)(=O)=O)cc1 | – | inconclusive: 32.6 µM [inhibitor, single point]
COc1ccc(OC)c(/C=N/N=C2\SCC(=O)N2Cc2ccco2)c1 | inactive: -23.9% | –
CCC(=O)NCCNC(=O)c1c(SC)nsc1SC | inactive: 5.98% | –
O=C(Nc1n[nH]c(=S)s1)c1ccc2ccccc2c1 | – | inconclusive: 4.11 µM [activator, partial curve]
CCCn1c(SCC(=O)NCc2ccc(Cl)cc2)n[nH]c1=O | inactive: -17.8% | –
CCCNC(=O)CCCCn1c(=S)[nH]c2c([nH]c3ccc(OC)cc32)c1=O | inactive: 1.43% | –
Cc1cccc(-n2ncc3c(N4CCc5ccccc54)ncnc32)c1 | – | inconclusive: 2.59 µM [activator, partial curve]

Fetched by structure from the entries so far, four records:
SMILES | activity change, negative = inhibition | Potency
C/C(CC(=O)Nc1ccc(C)c(Cl)c1)=N\NC(=O)c1ccccn1 | – | inconclusive: 20.6 µM [activator, single point]
CCOC(=O)NCc1cc(-c2nn(C)c(=O)c3ccccc23)ccc1C | – | inconclusive: 18.4 µM [inhibitor, single point]
COc1ccc(OC)c(/C=N/N=C2\SCC(=O)N2Cc2ccco2)c1 | inactive: -23.9% | –
COc1cccc(Nc2nc(-c3cccs3)nc3ccccc23)c1 | – | active: 23.1 µM
